Values of other authors in patent US20220170119A1, “Signaling Pathway of Cannabidiol (CBD) for Prevention and Treatment of COVID-19” (Hemix Biotech Limited, priority 2020, published 2022).
At least one structure is not confirmed: it was looked up by name or label, or the drawing left a doubt.

Test system: Covid-19
Details: cited from earlier work

Row | Structure (SMILES) | deaths in patients hospitalized with severe Covid-19 (low dose, UK RECOVERY trial and WHO solidarity trial) | length of hospitalization and death in COVID-19 patients (hospitalized COVID-19 patients)
1 | C[C@@H]1C[C@H]2[C@@H]3CCC4=CC(=O)C=C[C@]4(C)[C@@]3(F)[C@@H](O)C[C@]2(C)[C@@]1(O)C(=O)CO [dexamethasone] | reduces deaths | 
2 | CCC(CC)COC(=O)[C@H](C)N[P@](=O)(OC[C@H]1O[C@@](C#N)(c2ccc3c(N)ncnn23)[C@H](O)[C@@H]1O)Oc1ccccc1 [Remdesvir, Remdesivir] |  | might reduce the length of hospitalization but not death
